Experimental findings from patent US20240166598A1, “COMPOUNDS, COMPOSITIONS, AND METHODS OF USING THE SAME” (priority 2021, published 2024) are described below.

Usually efflux ratio stands for the permeability from basolateral to apical divided by that in the opposite direction, in the common usage.

The series can be described thus: in vitro. To be noted: human, Caco-2.

Turning to `C[C@H]1O[C@@H](O[C@H]2[C@@H](O)C[C@H](O[C@H]3[C@@H](O)C[C@H](O[C@H]4CC[C@@]5(C)[C@H](CC[C@@H]6[C@@H]5C[C@@H](O)[C@]5(C)[C@@H](C7=CC(=O)OC7)CC[C@]65O)C4)O[C@@H]3C)O[C@@H]2C)C[C@H](O)[C@@H]1O` [Digoxin], the efflux ratio was determined as 26.3.
